These are yes or no findings as the source states them, for the method shown. Some results given as binding are weak or reduced against the parent protein; the word gives no strength.
Molecular target: DR2-tag-biotin (biotinylated DR2-tag fusion protein, empty) (human)
Assay: HPLC gel filtration, detection of fluorescein at 492 nm; binding through the biotin on the tag

binding: binds
Substance: fluorescein-labeled streptavidin (from UniProt P22629 37-163)

From patent US20050003431A1, “Monovalent, multivalent, and multimeric MHC binding domain fusion proteins and conjugates, and uses therefor” (priority 1996, published 2005)
